{"sequences": {"note": "By UniProt entry, the sequences of proteins in these tests, tags left out. Residues count along the entry.", "UniProt P05067, 672-713 limits assumed": "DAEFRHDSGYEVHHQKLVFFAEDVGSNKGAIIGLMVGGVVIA"}, "source": "patent US11008282B2", "about": "“Bicyclic-compounds for use as a medicament, in particular for treatment of parkinson's disease” (CAPROTEC BIOANALYTICS GMBH, priority 2015, dated 2021)", "key": {"[1]": {"settings": "administration of entacapone; cited from earlier work"}, "Aβ42 protofibrils": {"molecular_target": "Aβ42 protofibrils (Homo sapiens, UniProt P05067)", "settings": "cited from earlier work"}, "HIBCH [2]": {"molecular_target": "T1, HIBCH (Homo sapiens, UniProt Q6NVY1)", "T1 sequence (Q6NVY1 33-386)": "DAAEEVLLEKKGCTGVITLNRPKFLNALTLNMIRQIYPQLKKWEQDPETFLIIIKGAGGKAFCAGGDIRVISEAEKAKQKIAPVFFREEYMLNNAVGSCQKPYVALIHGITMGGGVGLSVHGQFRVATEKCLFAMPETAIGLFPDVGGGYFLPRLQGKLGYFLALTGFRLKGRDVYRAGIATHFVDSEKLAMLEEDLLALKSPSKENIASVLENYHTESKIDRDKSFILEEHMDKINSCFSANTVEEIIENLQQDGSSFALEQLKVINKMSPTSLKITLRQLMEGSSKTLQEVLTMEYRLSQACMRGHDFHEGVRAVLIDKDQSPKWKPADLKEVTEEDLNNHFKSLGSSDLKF", "test": "dCCMS and dose-dependent capturing, HepG2 lysate", "type": "binding", "design": "performing CCMS experiments in the hepatoma-derived cell line HepG2; host or cells: HepG2 lysate", "settings": "CPT-224 1 μM, competitor 50 μM"}, "HIBCH [3]": {"molecular_target": "T1, HIBCH", "test": "Capture assay with CPT-224 followed by anti-HIBCH / streptavidin Western Blot", "type": "binding", "design": "made in house; host or cells: E. coli BL21", "settings": "recombinant HIBCH"}, "α-synuclein monomers": {"molecular_target": "α-synuclein monomers (Homo sapiens, UniProt P37840)", "settings": "cited from earlier work"}}, "note": "At least one compound was matched to its structure with a doubt left.", "data": [{"smiles": "CCN(CC)C(=O)/C(C#N)=C/c1cc(O)c(O)c([N+](=O)[O-])c1", "note": "[entacapone]", "values": [{"measurement": "body weight", "setting": "[1]", "value": "reduced body weight"}, {"measurement": "serum cholesterol levels", "setting": "[1]", "value": "reduced serum cholesterol levels"}, {"measurement": "triglyceride synthesis", "setting": "[1]", "value": "reduced triglyceride synthesis"}, {"measurement": "inhibition of aggregation of Aβ42 protofibrils to mature amyloid fibrils", "setting": "Aβ42 protofibrils", "value": "inhibit the aggregation of Aβ42 protofibrils to mature amyloid fibrils"}, {"measurement": "competition of HIBCH capture (dCCMS)", "setting": "HIBCH [2]", "value": "no competition was observed"}, {"measurement": "competition of crosslinking of HIBCH with CPT-224 (anti-Streptavidin Western Blot)", "setting": "HIBCH [3]", "value": "no competition"}, {"measurement": "inhibition of aggregation of α-synuclein monomers", "setting": "α-synuclein monomers", "value": "inhibit aggregation of α-synuclein monomers"}]}]}
